The values below come from publication PMC4178057.

Assay [1] deals with T1, mouse Tbx6 tagged with Flag (mouse) (UniProt P70327).
T1 sequence: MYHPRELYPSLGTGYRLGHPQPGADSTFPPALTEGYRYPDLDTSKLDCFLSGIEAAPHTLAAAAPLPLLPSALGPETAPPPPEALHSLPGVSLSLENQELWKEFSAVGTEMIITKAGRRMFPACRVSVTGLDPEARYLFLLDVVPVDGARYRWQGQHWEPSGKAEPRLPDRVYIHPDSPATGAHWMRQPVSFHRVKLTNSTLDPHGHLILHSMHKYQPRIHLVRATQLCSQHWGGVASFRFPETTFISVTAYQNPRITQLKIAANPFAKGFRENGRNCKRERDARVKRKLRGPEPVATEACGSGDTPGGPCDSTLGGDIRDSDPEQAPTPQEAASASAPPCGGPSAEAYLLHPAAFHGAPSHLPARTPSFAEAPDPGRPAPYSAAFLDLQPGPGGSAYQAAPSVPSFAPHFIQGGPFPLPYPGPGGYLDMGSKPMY
The assay is described as follows: co-IP; Cos 7 cells transfected with mTbx6-Flag and mRipply2-Myc or mRipply2-mutFPIQ-Myc; whole cell lysates pre-cleared on Protein G resin 2 hrs at 4°C, precipitated with anti-FLAG M2 resin 3 hrs at 4°C; Western blotting with anti-Myc. A general note: In western blotting, separated proteins are transferred to a membrane and probed.

The target in assay [2] is T2, zebrafish Tbx6 tagged with Flag peptide at C terminus (zebrafish) (UniProt Q8JIS6).
T2 sequence: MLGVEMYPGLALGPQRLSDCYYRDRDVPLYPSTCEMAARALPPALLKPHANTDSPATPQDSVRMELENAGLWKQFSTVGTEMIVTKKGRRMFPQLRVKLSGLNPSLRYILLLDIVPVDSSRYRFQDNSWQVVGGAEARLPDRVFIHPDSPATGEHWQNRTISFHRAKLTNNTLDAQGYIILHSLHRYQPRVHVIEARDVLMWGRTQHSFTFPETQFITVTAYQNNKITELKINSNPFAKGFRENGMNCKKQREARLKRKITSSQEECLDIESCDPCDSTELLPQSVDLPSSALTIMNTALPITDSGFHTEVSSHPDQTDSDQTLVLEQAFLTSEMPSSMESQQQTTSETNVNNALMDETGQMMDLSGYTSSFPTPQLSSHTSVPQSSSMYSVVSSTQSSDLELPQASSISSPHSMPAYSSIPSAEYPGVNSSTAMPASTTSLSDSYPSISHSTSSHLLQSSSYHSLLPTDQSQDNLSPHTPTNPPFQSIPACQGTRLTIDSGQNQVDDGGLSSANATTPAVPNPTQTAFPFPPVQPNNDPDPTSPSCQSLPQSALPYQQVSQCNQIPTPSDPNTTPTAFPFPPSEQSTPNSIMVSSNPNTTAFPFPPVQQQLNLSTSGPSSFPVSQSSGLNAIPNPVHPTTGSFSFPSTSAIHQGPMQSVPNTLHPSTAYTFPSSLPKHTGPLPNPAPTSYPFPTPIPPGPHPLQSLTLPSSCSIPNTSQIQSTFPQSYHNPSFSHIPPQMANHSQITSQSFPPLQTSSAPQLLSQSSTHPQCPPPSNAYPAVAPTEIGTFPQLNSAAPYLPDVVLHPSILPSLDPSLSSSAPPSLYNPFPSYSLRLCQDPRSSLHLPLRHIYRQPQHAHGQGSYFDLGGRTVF
Kind of assay: co-IP; 293T cells transfected with ztbx6-Flag and zRipply1-6Myc or zRipply1-mutFPVQ-6Myc; whole cell lysates pre-cleared on Protein G resin 2 hrs at 4°C, precipitated with anti-FLAG M2 resin 3 hrs at 4°C; Western blotting with anti-Myc.

No constants are given. Whether binding was seen depends on the method and setting. Binding seen in cells or lysates may run through a third protein. Some results given as binding are weak or reduced against the parent protein; the word gives no strength. Sequences can lack the tags named with a protein.

B1: mouse Ripply2 tagged with Myc (protein, UniProt Q2WG76 1-128)
chain: MDTTESAESAHNPARPPSRSRCPPSAQPGSEGFWRPWVRTPGEKEKRTGPRAAEALPSGPGMAEASGKLLQYQHPVRLFWPKSKCYDYLYQEAETLLKNFPIQATISFYEDSDSEDEIEGLACENQSN
For B1, the binding result in assay [1] was “binds”.

B2: zebrafish Ripply1 with six Myc tags (protein, UniProt Q2WG80 1-140)
chain: MNSVCFATPHTKHMDSKMQLTSSPASLWRPWLVTRKDAQTECRRTKLACPYSRPEVPGNTTTDGKMQSFQHPVRLYWPRSKSFDYLFSDGEALLRNFPVQATINFYDESDSEDEEESCDEDDESDVEDCLKHNSHFTAFN
For the molecule B2, the binding result in assay [2] was “binds”.
